Laboratory results: patent US20250346588A1, “IMIDAZOPYRIDINE AND OXAZOLOPYRIDINE DERIVATIVES AND ANALOGS THEREOF, METHODS OF PREPARATION THEREOF, METHODS OF HIF-1/2A PATHWAY INHIBITION, AND INDUCTION OF FERROPTOSIS” (KUDA THERAPEUTICS, INC., priority 2022, published 2025)

Tested on: HIF-2α transcriptional activity
Experiment: Hypoxia-responsive element-driven luciferase (HRE-Luc) screen
Type: cell-based, human
Conditions: 786-0 HRE-Luc cells, 24 h; data of FIG. 1
Experimental: Screens for inhibitory activity of compounds described herein were performed using 786-0 ccRCC cells that stably express HRE-Luc: 5 copies of the hypoxia-responsive element (HRE) fused to the pGL3 luciferase reporter (Promega Corp, Madison WI). 786-0 cells are pVHL deficient and thus constitutively express HIF-2α independently of cellular oxygen tension. Since 786-0 cells lack HIF-1α, HRE-driven luciferase activity is primarily HIF-2α driven, and has been previously validated. Cells were maintained at log phase growth in […] (DMEM) with 10% FBS in a humidified incubator at 37° C. with 5% CO2. For screening assays, cells were seeded at a density of 4,000 cells in 50 μl of complete media/well in quadruplicate wells/point in a 96-well plate. After 24 h, 50 μl of a 2× concentration of test compound was added to each well. Compounds were diluted from a 5-10 mM stock in DMSO and final concentrations of DMSO in each well in controls and treated wells were kept constant at ≤0.6% DMSO. After 24 h treatment, luciferase activity was measured using the Steady-Glo Luciferase assay system (Promega Corp) according to the manufacturer's protocol. Cell viability was measured in quadruplicate parallel wells using resazurin as recommended by the manufacturer (R&D systems, Minneapolis, MN). Data for luciferase and resazurin were normalized to DMSO treated controls (defining 100%) and wells containing assay reagent but no cells (defining 0%) and graphed using the log inhibitor versus normalized response option in Graphpad Prism 9.3.1 software. Representative data determined using Steady-Glo luciferase and resazurin are shown in FIGS. 1A and 1B respectively, with error bars showing SD. Filled diamonds, empty squares and empty triangles indicate treatment with 3, 8 and 22 respectively with results for HRE-Luc shown in FIG. 1A.

Row | SMILES | ratio of resazurin IC50 to HRE-Luc IC50
1 | COc1nccc2[nH]c(Nc3nnc(-c4ccc(F)cc4)o3)nc12 [Compound 3, 5-(4-Fluorophenyl)-N-(4-methoxy-1H-imidazo[4,5-c]pyridin-2-yl)-1,3,4-oxadiazol-2-amine] | 39.05
2 | Fc1ccc(-c2nnc(Nc3nc4ncccc4o3)o2)cc1 [Compound 8, N-(5-(4-Fluorophenyl)-1,3,4-oxadiazol-2-yl)oxazolo[4,5-b]pyridin-2-amine] | 3.2
3 | COc1ccc(-c2nnc(Nc3nc4c(OC)nccc4[nH]3)o2)cc1 [Compound 22, N-(4-methoxy-1H-imidazo[4,5-c]73yridine-2-yl)-5-(4-methoxyphenyl)-1,3,4-oxadiazol-2-amine] | 2.75
